No constants are given. Whether binding was seen depends on the method and setting. In cells and extracts the contact can be indirect. Some results given as binding are weak or reduced against the parent protein; the word gives no strength.
How the values were obtained:
[1] = target: endogenous GluA2 (glutamate receptor 2) of mouse brain (mouse (endogenous in mouse brain)) (UniProt P23819); assay: co-IP; mouse brain tissue lysate; precipitated with 5 ug anti-CYLD, anti-GluA1 or anti-GluA2 antibody (IgG as control) overnight at 4°C, protein A + G agarose 3-4 h, three washes with cold lysis buffer; immunoblot
[2] = target: endogenous GluA1 (glutamate receptor 1) of mouse brain (mouse (endogenous in mouse brain)) (UniProt P23818); assay: as above

Amino acid sequences for entries named in this document (tags omitted). Residues count along the entry.
UniProt P23819, residues 25-883: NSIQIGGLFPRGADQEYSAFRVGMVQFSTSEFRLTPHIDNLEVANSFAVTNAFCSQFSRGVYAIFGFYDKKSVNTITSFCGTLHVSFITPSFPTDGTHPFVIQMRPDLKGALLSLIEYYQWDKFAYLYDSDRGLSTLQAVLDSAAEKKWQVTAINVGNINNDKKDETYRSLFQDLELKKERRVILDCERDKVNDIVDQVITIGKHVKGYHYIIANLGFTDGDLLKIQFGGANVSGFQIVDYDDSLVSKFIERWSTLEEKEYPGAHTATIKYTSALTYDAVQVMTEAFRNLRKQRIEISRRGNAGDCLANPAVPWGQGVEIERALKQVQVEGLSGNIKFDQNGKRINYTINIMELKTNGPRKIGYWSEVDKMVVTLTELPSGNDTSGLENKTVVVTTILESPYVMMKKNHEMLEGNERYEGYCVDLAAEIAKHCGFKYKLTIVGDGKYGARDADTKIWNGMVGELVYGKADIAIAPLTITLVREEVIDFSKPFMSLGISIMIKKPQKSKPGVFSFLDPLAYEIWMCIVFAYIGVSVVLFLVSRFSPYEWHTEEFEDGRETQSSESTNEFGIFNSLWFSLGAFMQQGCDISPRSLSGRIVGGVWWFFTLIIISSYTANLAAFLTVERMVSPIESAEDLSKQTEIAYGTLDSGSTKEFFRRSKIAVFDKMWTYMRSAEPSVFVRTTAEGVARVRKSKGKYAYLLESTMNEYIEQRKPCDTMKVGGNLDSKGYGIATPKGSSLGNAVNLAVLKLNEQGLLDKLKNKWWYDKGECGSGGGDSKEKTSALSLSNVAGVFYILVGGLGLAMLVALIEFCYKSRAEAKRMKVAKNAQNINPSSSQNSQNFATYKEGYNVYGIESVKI
UniProt P23818, residues 19-907: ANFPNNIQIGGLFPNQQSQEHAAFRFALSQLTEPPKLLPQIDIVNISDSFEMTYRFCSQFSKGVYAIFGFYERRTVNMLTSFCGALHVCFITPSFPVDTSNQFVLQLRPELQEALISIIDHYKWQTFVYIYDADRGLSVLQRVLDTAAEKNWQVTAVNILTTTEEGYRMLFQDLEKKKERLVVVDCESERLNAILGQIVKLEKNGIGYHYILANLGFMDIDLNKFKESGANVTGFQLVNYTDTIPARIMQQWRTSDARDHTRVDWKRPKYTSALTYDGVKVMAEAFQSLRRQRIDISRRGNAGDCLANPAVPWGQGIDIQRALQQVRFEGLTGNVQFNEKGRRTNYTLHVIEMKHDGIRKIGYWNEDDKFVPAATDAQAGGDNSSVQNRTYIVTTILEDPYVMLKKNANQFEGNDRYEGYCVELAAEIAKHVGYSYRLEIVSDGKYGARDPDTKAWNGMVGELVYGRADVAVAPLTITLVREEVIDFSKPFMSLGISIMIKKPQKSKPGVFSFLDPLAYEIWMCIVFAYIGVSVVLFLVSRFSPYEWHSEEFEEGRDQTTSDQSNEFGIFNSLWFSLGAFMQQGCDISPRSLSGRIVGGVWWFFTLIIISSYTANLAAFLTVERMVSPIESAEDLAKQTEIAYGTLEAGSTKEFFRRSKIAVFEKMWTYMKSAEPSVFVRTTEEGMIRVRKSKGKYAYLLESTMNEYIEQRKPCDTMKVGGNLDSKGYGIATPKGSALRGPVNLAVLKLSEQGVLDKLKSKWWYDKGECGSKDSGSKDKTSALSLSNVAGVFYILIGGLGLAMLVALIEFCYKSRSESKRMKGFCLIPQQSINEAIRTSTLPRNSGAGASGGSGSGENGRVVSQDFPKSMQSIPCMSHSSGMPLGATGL

B1: endogenous CYLD of mouse brain (enzyme, UniProt Q80TQ2 1-952)
chain: MSSGLWSQEKVTSPYWEERIFYLLLQECSVTDKQTQKLLKVPKGSIGQYIQDRSVGHSRVPSTKGKKNQIGLKILEQPHAVLFVDEKDVVEINEKFTELLLAITNCEERLSLFRNRLRLSKGLQVDVGSPVKVQLRSGEEKFPGVVRFRGPLLAERTVSGIFFGVELLEEGRGQGFTDGVYQGKQLFQCDEDCGVFVALDKLELIEDDDNGLESDFAGPGDTMQVEPPPLEINSRVSLKVGESTESGTVIFCDVLPGKESLGYFVGVDMDNPIGNWDGRFDGVQLCSFASVESTILLHINDIIPDSVTQERRPPKLAFMSRGVGDKGSSSHNKPKVTGSTSDPGSRNRSELFYTLNGSSVDSQQSKSKNPWYIDEVAEDPAKSLTEMSSDFGHSSPPPQPPSMNSLSSENRFHSLPFSLTKMPNTNGSMAHSPLSLSVQSVMGELNSTPVQESPPLPISSGNAHGLEVGSLAEVKENPPFYGVIRWIGQPPGLSDVLAGLELEDECAGCTDGTFRGTRYFTCALKKALFVKLKSCRPDSRFASLQPVSNQIERCNSLAFGGYLSEVVEENTPPKMEKEGLEIMIGKKKGIQGHYNSCYLDSTLFCLFAFSSALDTVLLRPKEKNDIEYYSETQELLRTEIVNPLRIYGYVCATKIMKLRKILEKVEAASGFTSEEKDPEEFLNILFHDILRVEPLLKIRSAGQKVQDCNFYQIFMEKNEKVGVPTIQQLLEWSFINSNLKFAEAPSCLIIQMPRFGKDFKLFKKIFPSLELNITDLLEDTPRQCRICGGLAMYECRECYDDPDISAGKIKQFCKTCSTQVHLHPRRLNHSYHPVSLPKDLPDWDWRHGCIPCQKMELFAVLCIETSHYVAFVKYGKDDSAWLFFDSMADRDGGQNGFNIPQVTPCPEVGEYLKMSLEDLHSLDSRRIQGCARRLLCDAYMCMYQSPTMSLYK
binding [1]: binds
binding [2]: binds

Reference: PMC9945542
